# Part of at least one peptide drawing is inferred or uncertain, most often the ends. Numbered stars: 1 amine (or outer) side, 2 acyl side, 3 side chain; on linkers, the order of the positions; unused ones are H or OH. Bridge positions count the residues as written; N and C are the ends. Square brackets hold non-standard residues; d marks the D form. Peptide text beside a SMILES is read from it. * marks the point of attachment. ξ: configuration not given here. X2 = CCCCCOc1ccc(-c2ccc(-c3c(Cl)cc(C(=O)*)cc3OC)cc2)cc1; X3 = CCCCCOc1ccc(-c2ccc(-c3ccc(C(=O)*)c(Cl)c3)cc2)cc1; X1 = CCCCCOc1ccc(-c2ccc(-c3ccc(C(=O)*)c(C)c3)cc2)cc1; X4 = CCCCCOc1ccc(-c2ccc(-c3ccc(C(=O)*)cc3Cl)cc2)cc1; ξOrn(4,5-diOH) = O=C(C(CC(O)C(O)N[*:3])N[*:1])[*:2]; X5 = CCCCCOc1ccc(-c2ccc(-c3ccc(C(=O)*)cc3C)cc2)cc1; ξhTyr(βξ-OH,γξ-OH) = NC(C(=O)O)C(O)C(O)c1ccc(O)cc1; ξPro(3ξ-OH,4ξ-Me) = CC1CNC(C(=O)O)C1O; Hyp = O=C(O)[CH]1C[CH](O)CN1
# Legend:
# [1] = tested on: C. albicans; experiment: Minimum inhibitory concentration (MIC), standard agar dilution test or disc-diffusion test; assay type: cell-based; settings: in vitro
# [2] = tested on: C. albicans; experiment: Effective dose for controlling a systemic fungal infection in vivo (mice)
SMILES,"Minimal inhibitory concentration against C. albicans, MIC [1]",ED50 (mouse. i.p.) [2]
"CCCCCOc1ccc(-c2ccc(-c3ccc(C(=O)NC4CC(O)C(O)NC(=O)C5C(O)C(C)CN5C(=O)C(C(C)O)NC(=O)C(C(O)C(O)c5ccc(O)cc5)NC(=O)C5CC(O)CN5C(=O)C(C(C)O)NC4=O)c(Cl)c3)cc2)cc1 (stereo not drawn) [Example 1] (X3-[ξOrn(4,5-diOH)]T[Hyp][ξhTyr(βξ-OH,γξ-OH)]T[ξPro(3ξ-OH,4ξ-Me)]; lactam 1-C; configuration not given here)",0.01 µg/mL,0.45 mg/kg
"CCCCCOc1ccc(-c2ccc(-c3ccc(C(=O)NC4CC(O)C(O)NC(=O)C5C(O)C(C)CN5C(=O)C(C(C)O)NC(=O)C(C(O)C(O)c5ccc(O)cc5)NC(=O)C5CC(O)CN5C(=O)C(C(C)O)NC4=O)c(C)c3)cc2)cc1 (stereo not drawn) [Example 2] (X1-[ξOrn(4,5-diOH)]T[Hyp][ξhTyr(βξ-OH,γξ-OH)]T[ξPro(3ξ-OH,4ξ-Me)]; lactam 1-C; configuration not given here)",0.02 µg/mL,0.39 mg/kg
"CCCCCOc1ccc(-c2ccc(-c3ccc(C(=O)NC4CC(O)C(O)NC(=O)C5C(O)C(C)CN5C(=O)C(C(C)O)NC(=O)C(C(O)C(O)c5ccc(O)cc5)NC(=O)C5CC(O)CN5C(=O)C(C(C)O)NC4=O)cc3C)cc2)cc1 (stereo not drawn) [Example 3] (X5-[ξOrn(4,5-diOH)]T[Hyp][ξhTyr(βξ-OH,γξ-OH)]T[ξPro(3ξ-OH,4ξ-Me)]; lactam 1-C; configuration not given here)",0.039 µg/mL,0.72 mg/kg
"CCCCCOc1ccc(-c2ccc(-c3c(Cl)cc(C(=O)NC4CC(O)C(O)NC(=O)C5C(O)C(C)CN5C(=O)C(C(C)O)NC(=O)C(C(O)C(O)c5ccc(O)cc5)NC(=O)C5CC(O)CN5C(=O)C(C(C)O)NC4=O)cc3OC)cc2)cc1 (stereo not drawn) [Example 5] (X2-[ξOrn(4,5-diOH)]T[Hyp][ξhTyr(βξ-OH,γξ-OH)]T[ξPro(3ξ-OH,4ξ-Me)]; lactam 1-C; configuration not given here)",0.02 µg/mL,> 2.5 mg/kg
"CCCCCOc1ccc(-c2ccc(-c3ccc(C(=O)NC4CC(O)C(O)NC(=O)C5C(O)C(C)CN5C(=O)C(C(C)O)NC(=O)C(C(O)C(O)c5ccc(O)cc5)NC(=O)C5CC(O)CN5C(=O)C(C(C)O)NC4=O)cc3Cl)cc2)cc1 (stereo not drawn) [Example 6] (X4-[ξOrn(4,5-diOH)]T[Hyp][ξhTyr(βξ-OH,γξ-OH)]T[ξPro(3ξ-OH,4ξ-Me)]; lactam 1-C; configuration not given here)",0.02 µg/mL,> 2.5 mg/kg

# From patent US5786325A, “Cyclic peptide antifungal agents and methods of making and using” (Eli Lilly and Company, priority 1996, dated 1998)
